{"source": "PubChem BioAssay AID1259308 – NCATS | 2017", "purpose": "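Genes whose loss raises luciferase production in HEK293 cells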 (primary screen)", "cell system": "human HEK293 embryonic kidney cells stably expressing firefly luciferase (HEK-CMV-Luc2-Hygro)", "reagent": "single siRNA against human genes, 0.8 pmol siRNA per well", "timing": "72 h", "measured": "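Luciferase light (ONE-Glo) measured on one replicate plate set and viability (CellTiter-Glo) on the other, scaled to a negative control siRNA, with robust z-scores and luciferase per cell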", "scale": "total luciferase, z-score and total luciferase, % of control: higher = more reporter protein produced", "call rule": "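Active when the median/MAD z-score for overall luciferase is greater than 3; a gene was taken forward for validation with new siRNAs if at least two of its three siRNAs passed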", "meaning of the calls": "active = raised luciferase; inactive = no rise", "note": "The deposit covers about 59,000 reagents; shown is a random part of them. About 1,510 of them (2.6%) count as active. 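Calls use total luciferase alone and ignore viability, so some active siRNAs may act by altering cell number.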 Reagents against one gene are numbered here. Further read-outs or replicates are left out here."}
{"Target gene": "LCMT2", "reagent": 1, "total luciferase, z-score": 0.0674, "total luciferase, % of control": 83.2, "activity call": "inactive"}
{"Target gene": "LCMT2", "reagent": 2, "total luciferase, z-score": -1.08, "total luciferase, % of control": 60.4, "activity call": "inactive"}
{"Target gene": "LCMT2", "reagent": 3, "total luciferase, z-score": -0.499, "total luciferase, % of control": 72, "activity call": "inactive"}
{"Target gene": "ITFG2-AS1", "reagent": 1, "total luciferase, z-score": 2.89, "total luciferase, % of control": 139, "activity call": "inactive"}
{"Target gene": "ITFG2-AS1", "reagent": 2, "total luciferase, z-score": -0.301, "total luciferase, % of control": 75.9, "activity call": "inactive"}
{"Target gene": "ITFG2-AS1", "reagent": 3, "total luciferase, z-score": -1.04, "total luciferase, % of control": 61.3, "activity call": "inactive"}

Copied from the list:
Result of ITFG2-AS1 #1 in “activity call”: inactive
Entry of ITFG2-AS1 #2 under “total luciferase, % of control”: 75.9

The list goes on.
{"Target gene": "POTED", "reagent": 1, "total luciferase, z-score": -0.768, "total luciferase, % of control": 66.6, "activity call": "inactive"}
{"Target gene": "POTED", "reagent": 2, "total luciferase, z-score": -0.854, "total luciferase, % of control": 64.9, "activity call": "inactive"}
{"Target gene": "POTED", "reagent": 3, "total luciferase, z-score": -1.76, "total luciferase, % of control": 46.8, "activity call": "inactive"}
{"Target gene": "MED18", "reagent": 1, "total luciferase, z-score": -0.988, "total luciferase, % of control": 62.2, "activity call": "inactive"}
{"Target gene": "MED18", "reagent": 2, "total luciferase, z-score": -1.31, "total luciferase, % of control": 55.8, "activity call": "inactive"}
{"Target gene": "MED18", "reagent": 3, "total luciferase, z-score": 0.232, "total luciferase, % of control": 86.5, "activity call": "inactive"}
